Measured values published in ChEMBL document CHEMBL3297690, “Discovery and development of Janus kinase (JAK) inhibitors for inflammatory diseases” (J Med Chem, 2014).
pIC50, pKi: −log10 of the molar value.

Protein sequences, listed by entry. Tags and fused reporters are not part of them. Lines headed by an entry give the natural chain unless they say otherwise; changes in a name come on top.
UniProt P23458: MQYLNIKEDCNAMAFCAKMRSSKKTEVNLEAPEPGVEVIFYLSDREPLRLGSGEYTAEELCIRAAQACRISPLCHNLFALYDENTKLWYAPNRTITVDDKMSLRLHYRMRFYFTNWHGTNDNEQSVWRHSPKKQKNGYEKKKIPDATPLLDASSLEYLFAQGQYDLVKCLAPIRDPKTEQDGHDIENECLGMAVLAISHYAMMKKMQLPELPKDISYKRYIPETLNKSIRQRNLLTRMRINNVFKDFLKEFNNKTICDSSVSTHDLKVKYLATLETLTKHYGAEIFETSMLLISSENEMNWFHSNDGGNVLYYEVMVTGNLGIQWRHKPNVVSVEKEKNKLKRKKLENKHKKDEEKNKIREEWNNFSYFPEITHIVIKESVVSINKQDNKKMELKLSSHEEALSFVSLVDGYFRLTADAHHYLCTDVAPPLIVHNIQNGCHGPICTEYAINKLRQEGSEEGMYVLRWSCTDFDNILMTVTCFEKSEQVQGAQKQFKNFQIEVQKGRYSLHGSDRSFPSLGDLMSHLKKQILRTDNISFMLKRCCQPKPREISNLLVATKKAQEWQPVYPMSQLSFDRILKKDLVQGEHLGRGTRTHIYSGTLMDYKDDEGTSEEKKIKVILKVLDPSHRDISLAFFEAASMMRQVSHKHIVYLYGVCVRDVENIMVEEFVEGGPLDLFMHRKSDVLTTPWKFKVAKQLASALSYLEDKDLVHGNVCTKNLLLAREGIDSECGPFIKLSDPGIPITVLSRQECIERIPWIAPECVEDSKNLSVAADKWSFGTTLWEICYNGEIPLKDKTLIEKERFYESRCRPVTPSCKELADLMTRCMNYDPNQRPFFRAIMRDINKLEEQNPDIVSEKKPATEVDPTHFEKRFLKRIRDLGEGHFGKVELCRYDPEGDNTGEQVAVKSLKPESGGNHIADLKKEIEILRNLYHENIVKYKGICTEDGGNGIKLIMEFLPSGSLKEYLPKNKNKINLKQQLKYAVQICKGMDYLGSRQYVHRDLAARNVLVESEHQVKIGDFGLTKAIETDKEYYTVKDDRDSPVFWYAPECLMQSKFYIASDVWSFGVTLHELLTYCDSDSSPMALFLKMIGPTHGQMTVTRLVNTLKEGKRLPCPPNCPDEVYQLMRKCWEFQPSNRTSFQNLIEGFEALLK

How the values were obtained:
[1] = target: T1, Tyrosine-protein kinase JAK3 (Homo sapiens, UniProt P52333)
T1 sequence (P52333 whole entry): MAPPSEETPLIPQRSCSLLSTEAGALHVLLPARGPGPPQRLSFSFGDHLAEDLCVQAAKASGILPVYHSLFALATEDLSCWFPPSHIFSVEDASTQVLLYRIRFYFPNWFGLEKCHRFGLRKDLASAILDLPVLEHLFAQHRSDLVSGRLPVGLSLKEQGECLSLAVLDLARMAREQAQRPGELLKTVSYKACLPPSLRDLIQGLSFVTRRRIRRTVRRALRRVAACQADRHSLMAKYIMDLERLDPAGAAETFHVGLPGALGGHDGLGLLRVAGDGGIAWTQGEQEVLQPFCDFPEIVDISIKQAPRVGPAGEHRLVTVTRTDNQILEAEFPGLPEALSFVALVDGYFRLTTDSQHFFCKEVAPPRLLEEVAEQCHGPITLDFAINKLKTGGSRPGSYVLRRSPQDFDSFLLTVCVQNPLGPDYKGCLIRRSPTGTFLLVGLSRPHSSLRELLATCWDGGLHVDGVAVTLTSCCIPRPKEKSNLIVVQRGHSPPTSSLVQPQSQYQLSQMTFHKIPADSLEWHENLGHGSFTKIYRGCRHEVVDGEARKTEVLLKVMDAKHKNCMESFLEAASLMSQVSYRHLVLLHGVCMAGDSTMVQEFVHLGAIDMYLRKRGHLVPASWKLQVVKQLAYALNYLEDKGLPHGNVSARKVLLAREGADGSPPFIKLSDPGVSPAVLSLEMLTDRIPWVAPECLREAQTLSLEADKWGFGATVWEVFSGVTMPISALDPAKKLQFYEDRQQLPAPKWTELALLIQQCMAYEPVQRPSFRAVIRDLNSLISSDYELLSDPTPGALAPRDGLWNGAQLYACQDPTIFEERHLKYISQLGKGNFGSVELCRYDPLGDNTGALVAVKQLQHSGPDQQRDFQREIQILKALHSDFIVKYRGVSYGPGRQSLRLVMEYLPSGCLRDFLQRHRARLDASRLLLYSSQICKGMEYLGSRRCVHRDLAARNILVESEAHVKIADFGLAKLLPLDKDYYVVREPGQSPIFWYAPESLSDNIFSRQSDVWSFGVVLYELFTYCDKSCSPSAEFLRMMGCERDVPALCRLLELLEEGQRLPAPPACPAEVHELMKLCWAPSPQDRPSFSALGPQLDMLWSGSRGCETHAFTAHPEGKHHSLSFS

[2] = target: T1, Tyrosine-protein kinase JAK3; remark: listed apart in the source
JAK3/JAK1 = JAK3/JAK1 (Homo sapiens, UniProt P23458+P52333); type: protein-complex assay, Blood

**Q.** How did the pIC50 [1] turn out when `CC[C@@](C)(Nc1ccnc(-c2c[nH]c3ncccc23)n1)C(=O)NCC(F)(F)F` [DECERNOTINIB] was run?
**A.** The pIC50 was 8.92.

**Q.** What about the pIC50 [2] of the same molecule?
**A.** Its pIC50 is 7.13.

**Q.** What about the pKi [2] of the same molecule?
**A.** Its pKi is 8.60.

**Q.** And the pIC50 (JAK3/JAK1)?
**A.** The pIC50 was 6.03.
